{"source": "paper PMC5731924", "binders": {"B1": {"name": "Translationally controlled tumor protein (protein, UniProt P13693 1-172)", "chain": "MIIYRDLISHDEMFSDIYKIREIADGLCLEVEGKMVSRTEGNIDDSLIGGNASAEGPEGEGTESTVITGVDIVMNHHLQETSFTKEAYKKYIKDYMKSIKGKLEEQRPERVKPFMTGAAEQIKHILANFKNYQFFIGENMNPDGMVALLDYREDGVTPYMIFFKDGLEMEKC"}}, "biological_target": "P53 tumor suppressor protein (human (endogenous in A549)) (UniProt P04637)", "assay": "co-IP; A549 lysate (10 mM HEPES pH 7.2, 142.5 mM KCl, 5 mM MgCl2, 1 mM EGTA, 0.2% NP-40), precleared, incubated with protein A-agarose beads linked with anti-TCTP, anti-P53 or control antibody; immunoblot", "note": "These are yes or no findings as the source states them, for the method shown. Binding seen in cells or lysates may run through a third protein. Some results given as binding are weak or reduced against the parent protein; the word gives no strength.", "data": [{"binder": "B1", "values": [{"measurement": "binding", "result": "binds"}]}]}
